Some results were stated once for a whole list of compounds, not compound by compound. For at least one compound, name, drawing or mass did not settle the structure.
system: Phytophthora infestans; test: not given; type: in vivo, Phytophthora infestans on tomato plants; settings: 250 ppm, protective spray on tomato, assessed after 6 days; untreated plants 90% infected

SMILES	infection (% diseased leaf area)
COc1cc(CNS(=O)(=O)c2ccc(Oc3nc(OC)cc(OC)n3)cc2)ccn1 [Example 43]	less than or equal to 15%
Cc1cc(C)nc(Oc2ccc(S(=O)(=O)NCc3ccncc3)cc2)n1 [Example 48]	less than or equal to 15%
COc1cc(CNS(=O)(=O)c2ccc(Oc3nc(C)cc(C)n3)cc2)ccn1 [Example 49]	less than or equal to 15%
COc1cnnc(Oc2ccc(S(=O)(=O)NCc3ccnc(C)c3C)cc2)c1 [Example 53]	less than or equal to 15%
Cc1ccc(Oc2ccc(S(=O)(=O)NCc3ccncc3)cc2)nn1 [Example 54]	less than or equal to 15%
COc1ccc(Oc2ccc(S(=O)(=O)NCc3ccncc3)cc2)nn1 [Example 58]	less than or equal to 15%
COc1ccc(Oc2ccc(S(=O)(=O)NCc3ccncc3OC)cc2)nn1 [Example 60]	less than or equal to 15%
O=S(=O)(NCc1ccncc1)c1ccc(Oc2nccc(C(F)(F)F)n2)cc1 [Example 62]	less than or equal to 15%
Cc1nccc(CNS(=O)(=O)c2ccc(Oc3nccc(C(F)(F)F)n3)cc2)c1C [Example 65]	less than or equal to 15%
COc1ccnc(Oc2ccc(S(=O)(=O)NCc3ccncc3)cc2)n1 [Example 66]	less than or equal to 15%
O=S(=O)(NCc1ccnc2ccccc12)c1ccc(Oc2ncccc2C(F)(F)F)cc1 [Example 76]	less than or equal to 15%
COc1cc(CNS(=O)(=O)c2cccc(Oc3ncc(C(F)(F)F)cc3Cl)c2)ccn1 [Example 86]	less than or equal to 15%
COc1cc(CNS(=O)(=O)c2ccc(Oc3ccc(C(Cl)Cl)cn3)cc2)ccn1 [Example 96]	less than or equal to 15%
N#Cc1cc(CNS(=O)(=O)c2ccc(Oc3ccc(Cl)cn3)cc2)ccn1 [Example 116]	less than or equal to 15%
Cc1nccc(CNS(=O)(=O)c2ccc(Oc3ccc(C(F)(F)F)cn3)cc2F)c1C [Example 124]	less than or equal to 15%
COc1cnccc1CNS(=O)(=O)c1ccc(Oc2nc(C(F)(F)F)nc(C)c2C)cc1 [Example 170]	less than or equal to 15%
Cc1nccc(CNS(=O)(=O)c2ccc(Oc3nc(C(F)(F)F)nc(C)c3C)cc2)c1C [Example 171]	less than or equal to 15%

SMILES	infection (% diseased leaf area)
COc1cc(CNS(=O)(=O)c2ccc(Oc3ncccc3C(F)(F)F)c(C)c2)ccn1 [Example 189]	less than or equal to 15%
COc1cnccc1CNS(=O)(=O)c1ccc(Oc2ncccc2C(F)(F)F)c(C)c1 [Example 190]	less than or equal to 15%
Cc1cc(S(=O)(=O)NCc2ccnc(C)c2C)ccc1Oc1ccc(C(F)(F)F)cn1 [Example 199]	less than or equal to 15%
O=S(=O)(NCc1ccnc2c1CCC2)c1ccc(Oc2ccc(C(F)(F)F)cn2)cc1 [Example 240]	less than or equal to 15%
COc1cc(CNS(=O)(=O)c2ccc(Oc3ccnc(C)c3)cc2)ccn1 [Example 255]	less than or equal to 15%
COc1cc(CNS(=O)(=O)c2ccc(OCc3cn(C)nc3C(F)(F)F)cc2)ccn1 [Example 257]	less than or equal to 15%
COc1cc(CNS(=O)(=O)c2ccc(OCc3cc(C(F)(F)F)ccn3)cc2)ccn1 [Example 261]	less than or equal to 15%
Cc1nccc(CNS(=O)(=O)c2ccc(OCc3cc(C(F)(F)F)ccn3)cc2)c1C [Example 262]	less than or equal to 15%
CCc1cc(COc2ccc(S(=O)(=O)NCc3ccnc(C)c3C)cc2)on1 [Example 265]	less than or equal to 15%
COc1cc(CNS(=O)(=O)c2ccc(OCc3cccc(C(F)(F)F)n3)cc2)ccn1 [Example 266]	less than or equal to 15%
CCc1cc(COc2ccc(S(=O)(=O)NCc3ccnc(OC)c3)cc2)on1 [Example 268]	less than or equal to 15%
COc1cc(CNS(=O)(=O)c2ccc(OCc3ccncc3)cc2)ccn1 [Example 273]	less than or equal to 15%
Cc1nccc(CNS(=O)(=O)c2ccc(OCc3ccncc3)cc2)c1C [Example 274]	less than or equal to 15%
COc1cc(CNS(=O)(=O)c2ccc(OCc3cnc(Cl)s3)cc2)ccn1 [Example 275]	less than or equal to 15%
Cc1nccc(CNS(=O)(=O)c2ccc(Oc3cnc(Cl)s3)cc2)c1C [Example 276]	less than or equal to 15%
COc1cc(CNS(=O)(=O)c2ccc(OCc3ccc(Cl)nc3)cc2)ccn1 [Example 287]	less than or equal to 15%

system: Puccinia recondita; test: Greenhouse test, protective action against Puccinia recondita on wheat (Use Example 16); type: in vivo, Puccinia recondita on wheat cultivar Kanzler; settings: 250 ppm, protective spray on wheat; untreated plants 90% infected

SMILES	infection
COc1nccc(CNS(=O)(=O)c2ccc(Oc3ncccc3C(F)(F)F)cc2)c1OC [Example 22]	less than or equal to 15%
COc1cc(CNS(=O)(=O)c2cccc(Oc3ncc(C(F)(F)F)cc3Cl)c2)ccn1 [Example 86]	less than or equal to 15%
Cc1nccc(CNS(=O)(=O)c2cccc(Oc3ncc(C(F)(F)F)cc3Cl)c2)c1C [Example 87]	less than or equal to 15%
Cc1nccc(CNS(=O)(=O)c2ccc(Oc3ncc(C(F)(F)F)cc3Cl)cc2F)c1C [Example 89]	less than or equal to 15%
COc1cc(CNS(=O)(=O)c2ccc(Oc3ncc(C(F)(F)F)cc3Cl)c(F)c2)ccn1 [Example 90]	less than or equal to 15%
COc1cc(CNS(=O)(=O)c2ccc(Oc3ncc(C(F)(F)F)cc3Cl)c(Cl)c2)ccn1 [Example 94]	less than or equal to 15%
Cc1nccc(CNS(=O)(=O)c2ccc(Oc3ncc(C(F)(F)F)cc3Cl)c(Cl)c2)c1C [Example 95]	less than or equal to 15%
Cc1cc(CNS(=O)(=O)c2ccc(Oc3ncc(C(F)(F)F)cc3Cl)cc2)ccn1 [Example 103]	less than or equal to 15%
Cc1cc(CNS(=O)(=O)c2ccc(Oc3ncc(Cl)cc3Cl)cc2)ccn1 [Example 105]	less than or equal to 15%
O=S(=O)(NCc1ccnc(C(F)(F)F)c1)c1ccc(Oc2ncc(Cl)cc2Cl)cc1 [Example 110]	less than or equal to 15%
COc1cnc(Oc2ccc(S(=O)(=O)NCc3ccnc(C)c3C)cc2)c(Cl)c1 [Example 113]	less than or equal to 15%
N#Cc1cc(CNS(=O)(=O)c2ccc(Oc3ccc(C(F)(F)F)cn3)cc2)ccn1 [Example 114]	less than or equal to 15%
N#Cc1cc(CNS(=O)(=O)c2ccc(Oc3ncc(Cl)cc3Cl)cc2)ccn1 [Example 115]	less than or equal to 15%
O=S(=O)(NCc1ccnc(Cl)c1)c1ccc(Oc2ncc(C(F)(F)F)cc2Cl)cc1 [Example 120]	less than or equal to 15%
COc1cc(CNS(=O)(=O)c2cc(C)c(Oc3ncc(C(F)(F)F)cc3Cl)cc2C)ccn1 [Example 125]	less than or equal to 15%
Cc1cc(S(=O)(=O)NCc2ccnc(C)c2C)c(C)cc1Oc1ncc(C(F)(F)F)cc1Cl [Example 126]	less than or equal to 15%
Cc1cc(S(=O)(=O)NCc2ccnc(C)c2C)ccc1Oc1ncccc1C(F)(F)F [Example 191]	less than or equal to 15%

SMILES	infection
Cc1c(C(F)(F)F)cnc(Oc2ccc(S(=O)(=O)NCc3ccncc3)cc2)c1Cl [Example 204]	less than or equal to 15%
Cc1nccc(CN(C)S(=O)(=O)c2ccc(Oc3ccc(C(F)(F)F)cn3)cc2)c1C [Example 212]	less than or equal to 15%
Cc1cc(S(=O)(=O)N(C)Cc2ccnc(C)c2C)ccc1Oc1ccc(C(F)(F)F)cn1 [Example 214]	less than or equal to 15%
CCN(Cc1ccnc(C)c1C)S(=O)(=O)c1ccc(Oc2ccc(C(F)(F)F)cn2)c(C)c1 [Example 215]	less than or equal to 15%
COc1cc(CN(C)S(=O)(=O)c2ccc(Oc3ncc(C(F)(F)F)cc3Cl)cc2)ccn1 [Example 216]	less than or equal to 15%
CCN(Cc1ccnc(OC)c1)S(=O)(=O)c1ccc(Oc2ncc(C(F)(F)F)cc2Cl)cc1 [Example 217]	less than or equal to 15%
C=CCN(Cc1ccnc(OC)c1)S(=O)(=O)c1ccc(Oc2ncc(C(F)(F)F)cc2Cl)cc1 [Example 220]	less than or equal to 15%
C=CCN(Cc1ccnc(C)c1C)S(=O)(=O)c1ccc(Oc2ccc(C(F)(F)F)cn2)cc1C [Example 222]	less than or equal to 15%
Cc1cc(Oc2ncc(C(F)(F)F)cc2Cl)ccc1S(=O)(=O)N(C)Cc1ccnc(C)c1C [Example 223]	less than or equal to 15%
CCN(Cc1ccnc(C)c1C)S(=O)(=O)c1ccc(Oc2ncc(C(F)(F)F)cc2Cl)cc1C [Example 224]	less than or equal to 15%
C=CCN(Cc1ccnc(C)c1C)S(=O)(=O)c1ccc(Oc2ncc(C(F)(F)F)cc2Cl)cc1C [Example 225]	less than or equal to 15%
CCN(Cc1ccnc(OC)c1)S(=O)(=O)c1ccc(Oc2ccc(C(F)(F)F)cn2)cc1 [Example 227]	less than or equal to 15%
C=CCN(Cc1ccnc(OC)c1)S(=O)(=O)c1ccc(Oc2ccc(C(F)(F)F)cn2)cc1 [Example 228]	less than or equal to 15%
O=S(=O)(NCc1ccnc2c1CCC2)c1ccc(Oc2ncc(C(F)(F)F)cc2Cl)cc1 [Example 231]	less than or equal to 15%
O=S(=O)(NCc1ccnc2c1CCCC2)c1ccc(Oc2ccc(C(F)(F)F)cn2)cc1 [Example 234]	less than or equal to 15%
Cc1nccc(CNS(=O)(=O)c2ccc(Oc3ccc(C(F)(F)F)nn3)cc2)c1C [Example 250]	less than or equal to 15%
Cc1nccc(CNS(=O)(=O)c2ccc(OCc3cn(C)nc3C(F)(F)F)cc2)c1C [Example 258]	less than or equal to 15%

From patent US8299262B2, “Pyridylmethyl-sulfonamide compounds” (BASF SE, priority 2007, dated 2012)
